Experimental findings from paper doi:10.1101/2021.07.23.453482 (bioRxiv, 2021) are described below.

Results are given in words; binding and its absence hold for the method and conditions named.

The target in test [1] is BT4656^6S-GlcNAc/GlcNS (Bacteroides thetaiotaomicron) (UniProt Q89YS5). Nature of the test: SEC-MALS.
Test [2] concerns the target BT3333^6S-GalNAc (Bacteroides thetaiotaomicron) (UniProt Q8A2H2). In words: SEC-MALS. For orientation: In gel filtration, larger molecules generally elute earlier.

B1: BT4656^6S-GlcNAc/GlcNS (enzyme, UniProt Q89YS5 1-558)
chain: MPATEKASAPHWSFLSSDVISIMKSNPSTLLLPLAALSLASCANPQKEETKRPNIIFMMTDDHTTQAMSCYGGNLIQTPNMDRIANEGIRFDNCYAVNALSGPSRACILTGKFSHENGFTDNASTFNGDQQTFPKLLQQAGYQTAMIGKWHLISEPQGFDHWSILSGQHEQGDYYDPDFWEDGKHIVEKGYATDIITDKAINFLENRDKNKPFCMMYHQKAPHRNWMPAPRHLGIFNNTIFPEPANLFDDYEGRGKAAREQDMSIEHTLTNDWDLKLLTREEMLKDTTNRLYSVYKRMPSEVQDKWDSAYAQRIAEYRKGDLKGKALISWKYQQYMRDYLATVLAVDENIGRLLNYLEKIGELDNTIIVYTSDQGFFLGEHGWFDKRFMYEECQRMPLIIRYPKAIKAGSTSSAISMNVDFAPTFLDFAGVEVPSDIQGASLKPVLENEGKTPADWRKAAYYHYYEYPAEHSVKRHYGIRTQDFKLIHFYNDIDEWEMYDMKADPREMNNIFGKAEYAKKQKELMQLLEETQKQYKDNDPDEKETVLFKGDRRLMENR
Take B1: the binding result in test [1] is listed as “no binding”.

B2: BT3333^6S-GalNAc (enzyme, UniProt Q8A2H2 1-511)
chain: MKNVSRLLPLLPGIALLTGCNQKVQKDNGQNSQKPNIIYIFADDLGIGDLSCYGATKVSTPHIDRLAGQGVQFTNAYATSATSTPSRFGLLTGMYPWRQENTGIAPGNSELIIDTACVTMADMLKEAGYATGVVGKWHLGLGPKGGTDFNGHITPNAQSIGFDYEFVIPATVDRVPCVFVENGHVVGLDPNDPITVNYEHKVGDWPTGEENPELVKLKPSQGHNNTIINGIPRIGWMTGGKSALWKDEDIADIITNKAKSFIVSHKEEPFFLYMGTQDVHVPRVPHPRFAGKSGLGTRGDVILQLDWTIGEIMNTLDSLQLTDNTILIFTSDNGPVIDDGYQDQAFERLNGHTPMGIYRGGKYSAYEAGTRIPFIVRWPAKVKPNKQQALFSQIDIFASLAALLKQPLPEDAAPDSQEHLNTLLGKDYTSREYIVQQNLNNTLAIVKGQWKYIEPSDAPAIEYWTKMELGNDRHPQLYDLSADPSEKNNVAKQHPEVVRELSELLESVKTR
In the case of B2, the binding result in test [2] is “no binding”.
